In patent US8178505B2, “Method of predicting and reducing risk of metastasis of breast cancer to lung” (Sloan-Kettering Institute for Cancer Research, priority 2005, dated 2012):
At least one structure is not confirmed: it was looked up by name or label, or the drawing left a doubt.

Test system: LM2 cells
Assay: Lung metastasis formation after tail vein injection of LM2 cells, pharmacological targeting, bioluminescence imaging
Format: in vivo, Balb/c nude mice
Conditions: preliminary results; drugs individually or in combination; FIGS. 2A and 2B

SMILES: Cc1ccc(-c2cc(C(F)(F)F)nn2-c2ccc(S(N)(=O)=O)cc2)cc1 [Celecoxib]
- preventing lung metastasis: findings similar to those obtained using genetic knockdowns
